Results on five compounds are retold here after patent publication US9859508B2, “Condensed polycyclic aromatic compound and use thereof” (Nippon Kayaku Kabushiki Kaisha, priority 2013, dated 2018).

Molecules are shown by their SMILES.

The series is described as follows: Evaluation of transistor properties of organic transistor devices. As to conditions: top-contact organic transistor, spin-coated thin film from chloroform solution, in the air atmosphere. The source says: (4) Evaluation of Transistor Properties
For evaluation of transistor properties of the above-described condensed polycyclic aromatic compounds, organic transistor devices were fabricated by the following process.
Organic thin films were formed on n-doped silicon wafers with a thermally oxidized-SiO2 film using chloroform solutions of Compounds 110, 112, 114 and 119, by a spin coat process.
Then, Au was vacuum-deposited on the organic thin film using a shadow mask to thereby fabricate source/drain electrodes. […] The organic transistor device is of a top-contact type; and FIG. 1B illustrates its structure.
It is to be noted that in the organic transistor devices of the Example, the thermally oxidized film on the n-doped silicon wafer functions as an insulator layer (4), and the n-doped silicon wafer functions as both a substrate (6) and a gate electrode (5).
The performance of an organic transistor device depends on the amount of current flowing when a potential is applied between a source and drain electrodes with a potential being applied on a gate electrode. The amount of current can be measured to determine the mobility, which is a characteristic of a transistor. The mobility can be calculated from the expression (a) representing an electric property of carrier species generated in an organic semiconductor layer as a result of application of a gate electric field on SiO2 as an insulator. Id=ZμCi(Vg−Vt)2/2L (a)
wherein, Id is a saturated source-drain current value; Z is a channel width; Ci is an electric capacity of an insulator; Vg is a gate potential; Vt is a threshold potential; L is a channel length; and μ is a mobility (cm^2/Vs) to be determined Ci is a dielectric constant of a SiO2 insulator film used; Z and L are determined from the structure of an organic transistor device; Id and Vg are determined when the current value of an organic transistor device is measured; and Vt can be determined from Id and Vg. By substituting each value for the expression (a), corresponding mobilities at gate potentials can be calculated.
Transistor properties of the above-described condensed polycyclic aromatic compounds, i.e. Compounds 110, 112, 114, 119 and 319, were evaluated in the air atmosphere.
`CCCCCCCCc1cc2c(cc(CCCCCCCC)c3cc(=C(C#N)C#N)sc32)c2sc(=C(C#N)C#N)cc12` [Compound 110]: the Mobility is 3.3 × 10^−2 cm^2V^−1s^−1, the “On/Off Ratio” value was 10^3 and the “Threshold Potential” value stood at 8.5 V.
In the case of `CCCCCCCCCCCCc1cc2c(cc(CCCCCCCCCCCC)c3cc(=C(C#N)C#N)sc32)c2sc(=C(C#N)C#N)cc12` [Compound 112], the Mobility is reported as 4.8 × 10^−2 cm^2V^−1s^−1, the “On/Off Ratio” value is listed as 10^3 and the “Threshold Potential” value came out at 3.3 V.
For `CCCCCCCCCCCCCCCCc1cc2c(cc(CCCCCCCCCCCCCCCC)c3cc(=C(C#N)C#N)sc32)c2sc(=C(C#N)C#N)cc12` [Compound 114], in that order: 3.3 × 10^−2 cm^2V^−1s^−1, 10^4 and 1.4 V.
For `CCCCC(CC)Cc1cc2c(cc(CC(CC)CCCC)c3cc(=C(C#N)C#N)sc32)c2sc(=C(C#N)C#N)cc12` (stereo not drawn) [Compound 119], in that order: 0.12 cm^2V^−1s^−1, 10^4 and 2.3 V.
For `CCCCC(CC)Cc1c2cc(=C(C#N)C#N)sc2cc2c(CC(CC)CCCC)c3cc(=C(C#N)C#N)sc3cc12` (stereo not drawn) [Compound 319], in that order: 6.8 × 10^−3 cm^2V^−1s^−1, 10^3 and 1.4 V.
